Data: paper PMC5527465
Results are given in words; binding and its absence hold for the method and conditions named. In cells and extracts the contact can be indirect.

Protein sequences, listed by entry. Tags and fused reporters are not part of them.
UniProt P35222: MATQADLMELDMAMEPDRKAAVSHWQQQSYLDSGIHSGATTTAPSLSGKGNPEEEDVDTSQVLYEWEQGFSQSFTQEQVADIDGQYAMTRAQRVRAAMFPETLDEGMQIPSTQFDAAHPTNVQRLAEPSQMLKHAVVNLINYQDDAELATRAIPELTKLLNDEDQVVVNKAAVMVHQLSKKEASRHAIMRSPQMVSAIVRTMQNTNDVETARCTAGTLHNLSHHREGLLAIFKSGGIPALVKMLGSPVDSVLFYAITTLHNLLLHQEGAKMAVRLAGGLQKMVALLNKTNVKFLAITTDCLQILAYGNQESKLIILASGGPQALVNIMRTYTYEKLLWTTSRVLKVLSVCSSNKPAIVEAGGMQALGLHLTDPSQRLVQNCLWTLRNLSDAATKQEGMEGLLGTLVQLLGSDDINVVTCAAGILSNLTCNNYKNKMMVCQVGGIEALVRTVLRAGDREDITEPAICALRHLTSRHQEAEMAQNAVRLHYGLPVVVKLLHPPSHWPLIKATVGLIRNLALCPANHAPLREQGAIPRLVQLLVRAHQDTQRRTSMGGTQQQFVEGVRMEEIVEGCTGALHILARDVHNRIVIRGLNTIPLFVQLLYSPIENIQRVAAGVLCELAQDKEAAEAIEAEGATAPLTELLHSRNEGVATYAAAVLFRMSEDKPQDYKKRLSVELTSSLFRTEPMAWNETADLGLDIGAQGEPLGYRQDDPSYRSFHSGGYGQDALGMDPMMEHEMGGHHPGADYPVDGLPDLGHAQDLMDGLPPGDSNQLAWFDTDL

Molecular target: T1, Zinc finger X‐chromosomal protein (ZFX) (human (in HCC cells)) (UniProt P17010)
T1 sequence: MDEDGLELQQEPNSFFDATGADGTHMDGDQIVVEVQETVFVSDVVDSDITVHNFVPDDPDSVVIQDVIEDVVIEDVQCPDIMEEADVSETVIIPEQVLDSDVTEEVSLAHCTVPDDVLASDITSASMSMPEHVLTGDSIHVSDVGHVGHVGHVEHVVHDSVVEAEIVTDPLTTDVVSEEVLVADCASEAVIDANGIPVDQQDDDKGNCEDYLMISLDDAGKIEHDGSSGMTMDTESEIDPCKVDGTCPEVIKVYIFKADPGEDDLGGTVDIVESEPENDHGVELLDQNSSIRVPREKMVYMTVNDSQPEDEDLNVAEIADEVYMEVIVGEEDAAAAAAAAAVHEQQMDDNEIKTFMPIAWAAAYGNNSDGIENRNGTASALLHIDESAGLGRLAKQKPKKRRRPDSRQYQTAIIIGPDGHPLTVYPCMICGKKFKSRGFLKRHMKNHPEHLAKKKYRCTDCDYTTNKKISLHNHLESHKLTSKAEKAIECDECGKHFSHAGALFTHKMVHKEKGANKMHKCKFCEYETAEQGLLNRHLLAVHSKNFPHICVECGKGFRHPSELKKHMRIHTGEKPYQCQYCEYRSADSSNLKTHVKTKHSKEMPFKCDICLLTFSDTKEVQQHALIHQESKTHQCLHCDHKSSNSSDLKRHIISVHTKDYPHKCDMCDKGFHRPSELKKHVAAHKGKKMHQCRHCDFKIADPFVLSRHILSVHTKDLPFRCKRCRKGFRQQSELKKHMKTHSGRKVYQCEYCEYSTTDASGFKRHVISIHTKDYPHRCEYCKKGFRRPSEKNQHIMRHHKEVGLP
Assay: co-IP; liver CSC or non‐CSC subsets of HCC cells; which protein was precipitated is not told; no figure shown

## β‐catenin (from UniProt P35222 1-781)
  binding: no binding
